Assay results reported in patent US20100304462.
Positions count from the first letter of the chain named. Protein sequences can lack the tags named with them. For part of these data: Construct, isoform or probe ends are uncertain for at least one entry. For part of these data: A negative result means that nothing was seen under these conditions.

Experiments:
Experiment in all cases: enzyme reaction in vitro
[1] = system: T1, CstMI (Corynebacterium striatum); details: CITED; cuts N20/N18; protein in a lysate after overexpression
T1 sequence (limits assumed): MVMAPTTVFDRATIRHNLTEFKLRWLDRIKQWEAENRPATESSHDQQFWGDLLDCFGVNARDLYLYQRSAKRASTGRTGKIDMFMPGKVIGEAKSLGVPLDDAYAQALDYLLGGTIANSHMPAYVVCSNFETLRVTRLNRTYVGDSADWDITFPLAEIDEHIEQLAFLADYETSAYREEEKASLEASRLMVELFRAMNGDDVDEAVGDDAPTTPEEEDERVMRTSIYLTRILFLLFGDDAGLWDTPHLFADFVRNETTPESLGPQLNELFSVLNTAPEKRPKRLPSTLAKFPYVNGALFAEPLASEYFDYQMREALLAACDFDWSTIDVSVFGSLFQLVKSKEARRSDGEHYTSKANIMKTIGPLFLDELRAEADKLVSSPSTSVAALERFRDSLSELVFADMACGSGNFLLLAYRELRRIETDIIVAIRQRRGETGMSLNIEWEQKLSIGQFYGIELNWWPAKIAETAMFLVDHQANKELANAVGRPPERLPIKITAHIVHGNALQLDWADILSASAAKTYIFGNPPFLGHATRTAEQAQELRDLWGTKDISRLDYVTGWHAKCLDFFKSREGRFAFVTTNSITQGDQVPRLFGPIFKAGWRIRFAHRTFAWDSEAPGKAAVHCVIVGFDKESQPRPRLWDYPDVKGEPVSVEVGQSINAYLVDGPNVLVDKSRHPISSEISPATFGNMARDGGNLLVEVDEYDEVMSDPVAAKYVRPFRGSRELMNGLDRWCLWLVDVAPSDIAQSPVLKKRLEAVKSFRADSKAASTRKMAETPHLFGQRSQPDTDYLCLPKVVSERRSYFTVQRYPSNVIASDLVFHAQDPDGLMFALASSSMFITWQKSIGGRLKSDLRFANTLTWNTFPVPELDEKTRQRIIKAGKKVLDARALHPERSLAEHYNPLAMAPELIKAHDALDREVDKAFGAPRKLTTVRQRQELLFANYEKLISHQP

[2] = system: T2, NlaCI (Neisseria lactamica ST640); details: cuts N19/N17 or N20/N18; protein in a lysate after overexpression
T2 sequence (limits assumed): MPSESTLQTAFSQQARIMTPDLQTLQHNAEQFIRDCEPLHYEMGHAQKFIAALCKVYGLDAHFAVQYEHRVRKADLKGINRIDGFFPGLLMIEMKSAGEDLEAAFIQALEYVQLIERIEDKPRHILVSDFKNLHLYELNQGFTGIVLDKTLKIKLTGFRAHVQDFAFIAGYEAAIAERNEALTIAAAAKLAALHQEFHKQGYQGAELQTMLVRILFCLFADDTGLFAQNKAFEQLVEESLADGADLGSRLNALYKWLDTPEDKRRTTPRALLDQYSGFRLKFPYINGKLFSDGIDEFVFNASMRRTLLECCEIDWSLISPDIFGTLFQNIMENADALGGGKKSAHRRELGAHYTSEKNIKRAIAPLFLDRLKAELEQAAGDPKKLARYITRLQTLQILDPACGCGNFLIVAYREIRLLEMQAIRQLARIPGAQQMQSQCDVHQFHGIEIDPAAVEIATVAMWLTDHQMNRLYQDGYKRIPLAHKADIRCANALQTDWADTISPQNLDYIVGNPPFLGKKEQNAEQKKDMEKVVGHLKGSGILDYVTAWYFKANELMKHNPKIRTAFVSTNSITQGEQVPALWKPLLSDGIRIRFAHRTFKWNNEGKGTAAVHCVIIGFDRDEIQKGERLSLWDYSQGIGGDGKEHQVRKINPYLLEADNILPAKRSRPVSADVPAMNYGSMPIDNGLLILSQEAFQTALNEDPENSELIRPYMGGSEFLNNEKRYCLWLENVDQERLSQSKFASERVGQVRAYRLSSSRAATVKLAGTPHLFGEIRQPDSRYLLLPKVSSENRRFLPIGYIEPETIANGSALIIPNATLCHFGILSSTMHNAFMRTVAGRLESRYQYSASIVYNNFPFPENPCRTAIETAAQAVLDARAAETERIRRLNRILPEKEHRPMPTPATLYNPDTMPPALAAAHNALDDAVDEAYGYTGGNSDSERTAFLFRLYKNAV

[3] = system: T3, NmeAIII D818R (Neisseria meningitidis Z2491); details: no endonuclease activity, protein in a lysate after overexpression
T3 sequence (limits assumed): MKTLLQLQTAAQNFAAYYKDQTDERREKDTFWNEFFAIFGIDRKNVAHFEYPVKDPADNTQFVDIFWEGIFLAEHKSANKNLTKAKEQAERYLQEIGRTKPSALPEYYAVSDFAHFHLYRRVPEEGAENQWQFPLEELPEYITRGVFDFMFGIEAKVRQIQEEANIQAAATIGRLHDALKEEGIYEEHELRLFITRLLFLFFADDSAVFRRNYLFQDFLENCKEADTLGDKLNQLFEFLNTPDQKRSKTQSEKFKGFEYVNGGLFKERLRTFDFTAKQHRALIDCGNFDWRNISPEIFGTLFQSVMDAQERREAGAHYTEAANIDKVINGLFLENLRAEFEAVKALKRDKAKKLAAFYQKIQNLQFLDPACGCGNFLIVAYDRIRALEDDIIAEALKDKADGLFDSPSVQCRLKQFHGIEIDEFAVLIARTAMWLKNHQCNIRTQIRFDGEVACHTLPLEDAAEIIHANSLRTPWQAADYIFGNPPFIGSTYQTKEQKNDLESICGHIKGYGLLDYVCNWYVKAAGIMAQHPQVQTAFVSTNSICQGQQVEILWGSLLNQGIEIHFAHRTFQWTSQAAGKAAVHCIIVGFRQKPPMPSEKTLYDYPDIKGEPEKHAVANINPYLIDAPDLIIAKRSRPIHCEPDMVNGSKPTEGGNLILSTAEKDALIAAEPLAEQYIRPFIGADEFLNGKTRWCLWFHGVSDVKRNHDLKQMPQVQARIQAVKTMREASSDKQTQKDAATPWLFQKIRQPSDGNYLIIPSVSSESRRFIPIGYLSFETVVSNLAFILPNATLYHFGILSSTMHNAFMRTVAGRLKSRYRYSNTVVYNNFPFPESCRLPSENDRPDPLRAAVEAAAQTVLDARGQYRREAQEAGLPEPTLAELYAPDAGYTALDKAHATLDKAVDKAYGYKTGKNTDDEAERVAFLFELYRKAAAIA

[4] = system: T4, NmeAIII K816E+D818R (Neisseria meningitidis Z2491); details: protein in a lysate after overexpression
T4 sequence (limits assumed): T3 sequence (limits assumed) with K816E

## AAGGAG (double strand) [CstMI site]
[1]
  activity on this sequence: active

## CATCAC (double strand) [NlaCI site]
[2]
  activity on this sequence: active

## GCCGAC (double strand) [NmeAIII 6C site]
[3]; variant of NmeAIII site
  activity on this sequence: not active
[4]; NEBuffer 4, crude extract, variant of NmeAIII site
  activity on this sequence: active

## GCCGAG (double strand) [NmeAIII site]
[3]
  activity on this sequence: not active
[4]; wild-type sites not matched by cutting
  activity on this sequence: not active
